18 molecules from patent US20260001953A1 can be followed below.

Protein sequences, listed by entry. Tags and fused reporters are not part of them. Lines headed by an entry give the natural chain unless they say otherwise; changes in a name come on top. Residues count along the entry.
UniProt Q9NYZ4: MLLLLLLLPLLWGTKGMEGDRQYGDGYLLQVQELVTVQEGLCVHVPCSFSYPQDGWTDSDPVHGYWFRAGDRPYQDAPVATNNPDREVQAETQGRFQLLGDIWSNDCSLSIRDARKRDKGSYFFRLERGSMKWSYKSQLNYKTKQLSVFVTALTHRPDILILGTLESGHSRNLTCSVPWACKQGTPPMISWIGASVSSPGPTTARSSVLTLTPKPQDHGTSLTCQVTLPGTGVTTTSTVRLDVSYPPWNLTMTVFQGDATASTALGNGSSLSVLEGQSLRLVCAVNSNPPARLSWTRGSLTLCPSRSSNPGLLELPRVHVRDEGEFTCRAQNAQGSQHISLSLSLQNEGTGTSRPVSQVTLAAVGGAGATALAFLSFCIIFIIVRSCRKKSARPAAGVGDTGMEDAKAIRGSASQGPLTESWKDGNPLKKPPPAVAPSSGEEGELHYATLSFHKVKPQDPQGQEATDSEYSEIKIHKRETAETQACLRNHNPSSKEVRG
SIGLEC-8 transiently expressed on cells: residues 17-499 of Q9NYZ4
Sialic acid-binding immunoglobulin-like lectin 8 (SIGLEC-8), antigen of the Carterra SPR studies: residues 17-363 of Q9NYZ4
UniProt P10721: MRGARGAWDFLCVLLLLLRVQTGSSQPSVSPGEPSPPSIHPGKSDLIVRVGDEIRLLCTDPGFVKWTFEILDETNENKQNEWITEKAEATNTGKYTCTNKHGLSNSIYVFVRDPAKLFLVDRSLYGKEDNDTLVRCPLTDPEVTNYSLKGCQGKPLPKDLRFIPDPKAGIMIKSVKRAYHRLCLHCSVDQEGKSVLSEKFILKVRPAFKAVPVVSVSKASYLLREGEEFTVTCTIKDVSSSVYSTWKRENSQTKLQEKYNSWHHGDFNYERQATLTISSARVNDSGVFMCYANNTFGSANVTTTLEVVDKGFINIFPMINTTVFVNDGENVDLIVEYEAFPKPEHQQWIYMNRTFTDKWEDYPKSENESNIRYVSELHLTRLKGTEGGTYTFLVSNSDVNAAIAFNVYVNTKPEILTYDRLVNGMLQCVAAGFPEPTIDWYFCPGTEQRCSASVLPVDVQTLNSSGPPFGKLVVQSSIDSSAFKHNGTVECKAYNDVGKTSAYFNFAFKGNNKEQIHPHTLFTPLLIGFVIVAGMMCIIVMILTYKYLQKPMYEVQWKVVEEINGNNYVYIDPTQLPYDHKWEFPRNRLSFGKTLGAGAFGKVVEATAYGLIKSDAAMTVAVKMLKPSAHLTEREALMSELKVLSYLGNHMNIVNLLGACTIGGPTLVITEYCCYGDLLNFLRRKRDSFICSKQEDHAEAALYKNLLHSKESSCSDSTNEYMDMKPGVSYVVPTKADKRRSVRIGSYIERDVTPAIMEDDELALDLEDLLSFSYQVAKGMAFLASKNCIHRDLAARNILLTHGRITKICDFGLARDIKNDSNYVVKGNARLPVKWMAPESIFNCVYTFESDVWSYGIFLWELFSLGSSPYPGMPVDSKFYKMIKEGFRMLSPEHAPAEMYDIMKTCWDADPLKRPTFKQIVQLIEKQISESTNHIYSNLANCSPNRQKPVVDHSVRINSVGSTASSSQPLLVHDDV
CD117 transiently expressed on Expi293 cells: residues 26-976 of P10721
Cluster of differentiation 117 (CD117), antigen of epitope binning and ELISA: residues 26-520 of P10721

B1: SIGLEC-8-1 (antibody, human IgG1, kappa, V domains shown)
VH: EVQLLESGGGLVQPGGSLRLSCAASGFTFSNFPMSWVRQAPGKGLEWVSSISGTGSSTYYADSVKGRFTISRDNSKNTLYLQMNSLRAEDTAVYYCVREGRYFYYAMDVWGQGTLVTVSS
VL: DIQMTQSPSSLSASVGDRVTITCRASQNIAGYLNWYQQKPGKAPKLLIYAASNLHTGVPSRFSGSGSGTDFTLTISSLQPEDFATYYCQQSYSTPLAFGGGTKVEIKR
B2: SIGLEC-8-40 (antibody, human IgG1, kappa, V domains shown)
VH: EVQLLESGGGLVQPGGSLRLSCAASGFTFSFFDMMWVRQAPGKGLEWVSQISETGRRTYYADSVKGRFTISRDNSKNTLYLQMNSLRAEDTAVYYCATAEDEQGYDYWGQGTLVTVSS
VL: DIQMTQSPSSLSASVGDRVTITCRASQSINFWLRWYQQKPGKAPKLLIYGTTSLESGVPSRFSGSGSGTDFTLTISSLQPEDFATYYCQQTATWPFTFGQGTKVEIKR
B3: CD117-9 (antibody, human IgG1, kappa, V domains shown)
VH: EVQLLESGGGLVQPGGSLRLSCAASGFSFTNYAMSWVRQAPGKGLEWVSSISGSGGSTYYADSVKGRFTISRDNSKNTLYLQMNSLRAEDTAVYYCARGSGSYFGFDFWGQGTLVTVSS
VL: B1 VL with N28G, A30G, G31T, N53S, H55Q, T56P, S93R, T94P, L96F, A97T
B4: CD117-2 (antibody, human IgG1, kappa, V domains shown)
VH: EVQLLESGVGLVQPGGSLRLSCAASGFSFGSYAMSWVRQAPGKGLEWVSSISGSGGTTYYADSVKGRFTISRDNSKNTLYLQMNSLRAEDTAVYYCARDPDDYGDYYFDYWGQGTLVTVSS
VL: DIQMTQSPSSLSASVGDRVTITCRASQSIGEYLNWYQQKPGKAPKLLIYATSSLQRGVPSRFSGSGSGTDFTLTISSLQPEDFATYYCQQSHTTPYTFGGGTKVEIKR
B5: CD117-14 (antibody, human IgG1, kappa, V domains shown)
VH: EVQLLESGGGLVQPGGSLRLSCAASGFTFSDYAMGWVRQAPGKGLEWVSGIGGSGGSAYYADSVKGRFTISRDNSKNTLYLQMNSLRAEDTAVYYCARGFDSTDGVDYWGQGTLVTVSS
VL: DIQMTQSPSSLSASVGDRVTITCQTSQSVSSYLNWYQQKPGKAPKLLIYGASRLESGVPSRFSGSGSGTDFTLTISSLQPEDFATYYCQQSYKTPWTFGGGTKVEIKR
B6: CD117-6 (antibody, human IgG1, kappa, V domains shown)
VH: EVQLLESGGGLVQPGGSLRLSCAASGFTFSAYALTWVRQAPGKGLEWVSAISSSGGSTFYADSVKGRFTISRDNSKNTLYLQMNSLRAEDTAVYYCARVSRGYPRRSDSWGQGTLVTVSS
VL: DIQMTQSPSSLSASVGDRVTTTCRASQGISTYLNWYQQKPGKAPKLLIYGASRLQGGVPSRFSGSGSGTDFTLTISSLQPEDFATYYCQQGYSFPWTFGGGTKVEIKR
B7: SIGLEC-8-51 (antibody, human IgG1, kappa, V domains shown)
VH: EVQLLESGGGLVQPGGSLRLSCAASGFTFPRYGMSWVRQAPGKGLEWVTATSGSGGTTYYADSVKGRFTISRDNSKNTLYLQMNSLRAEDTAVYYCARDESSGWYPKDYWGQGTLVTVSS
VL: B5 VL with Q24R, T25A, S31R, Y32F, R53N, S56G, K93T, W96H
B8: CD117-18 (antibody, human IgG1, kappa, V domains shown)
VH: EVQLLESGGGLVQPGGSLRLSCAASGFTFSDYSMNWVRQAPGKGLEWVSAITGSGGNTFYADSVKGRFTISRDNSKNTLYLQMNSLRAEDTAVYYCARSNYEQDVFDIWGQGTLVTVSS
VL: B1 VL with N28T, A30Y, G31R, A50D, N53D, H55Q, T56S, T94I, L96I, A97T
B9: CD117-7 (antibody, human IgG1, kappa, V domains shown)
VH: B5 VH
VL: B4 VL with E31N, T51A, S53D, R56T, S91G, H92Y, T93S
B10: CD117-17 (antibody, human IgG1, kappa, V domains shown)
VH: EVQLLESGGGLVQPGGSLRLSCAASGFTFSDYPMSWVRQAPGKGLEWVSAIGGSGGDTYYADSVKGRFTISRDNSKNTLYLQMNSLRAEDTAVYYCARGAYDGEGFDYWGQGTLVTVSS
VL: B1 VL with N28T, A30S, A50D, N53T, H55Q, T56R, S91N, S93R, L96F, A97T
B11: CD117-11 (antibody, human IgG1, kappa, V domains shown)
VH: EVQLLESGGGLVQPGGSLRLSCAASGFTFGNFAMSWVRQAPGKGLEWVSLISGSGGNTYYADSVKGRFTISRDNSKNTLYLQMNSLRAEDTAVYYCARGDGVNGFDYWGQGTLVTVSS
VL: B4 VL with G30P, E31T, S53T, Q55E, R56S, S91T, H92Y, T93S
B12: CD117-10 (antibody, human IgG1, kappa, V domains shown)
VH: EVQLLESGGGLVQPGGSLRLSCAASGFIFSSYAMTWVRQAPGKGLEWVSSISGRGGNTYYADSVKGRFTISRDNSKNTLYLQMNSLRAEDTAVYYCAKMMDDFYDAFNMWGQGTLVTVSS
VL: B4 VL with G30R, E31T, A50D, T51A, Q55E, R56S, H92F
B13: CD117-20 (antibody, human IgG1, kappa, V domains shown)
VH: EVQLLESGGGLVQPGGSLRLSCAASGFTFSSDAMNWVRQAPGKGLEWVSGISGSGGYTYYADSVKGRFTISRDNSKNTLYLQMNSLRAEDTAVYYCARSGNVVGDGMDVWGQGTLVTVSS
VL: B1 VL with A30R, G31R, A50D, N53T, H55E, T56S, Y92H, S93T, A97T
B14: CD117-19 (antibody, human IgG1, kappa, V domains shown)
VH: EVQLLESGGGLVQPGGSLRLSCAASGFSFSSYAMSWVRQAPGKGLEWVSAISGTGGNTYYADSVKGRFTISRDNSKNTLYLQMNSLRAEDTAVYYCARRNDFWSDAFDIWGQGTLVTVSS
VL: B1 VL with A30Y, G31T, A50D, N53S, T56S, T94S, P95S, L96I, A97T
B15: CD117-8 (antibody, human IgG1, kappa, V domains shown)
VH: EVQLLESGGGLVQPGGSLRLSCAASGFTLTSYAMSWVRQAPGKGLEWVSTISGSGGYTYYADSVKGRFTISRDNSKNTLYLQMNSLRAEDTAVYYCARDSGYDRGLDYWGQGTLVTVSS
VL: B1 VL with N28S, I29V, A30R, G31T, A50D, N53T, H55Q, T56S, S93N
B16: CD117-12 (antibody, human IgG1, kappa, V domains shown)
VH: EVQLLESGGGLVQPGGSLRLSCAASGITFSSYAMTWVRQAPGKGLEWVSAISSSGTGTYYADSVKGRFTISRDNSKNTLYLQMNSLRAEDTAVYYCARERAPKDFGSSGYSFDYWGQGTLVTVSS
VL: B4 VL with G30D, E31I, A50K, T51A, R56S, H92Y, T94V, Y96I
B17: CD117-4 (antibody, human IgG1, kappa, V domains shown)
VH: EVQLLESGGGLVQPGGSLRLSCAASGFTFSRSAMSWVRQAPGKGLEWVSAISAGGGNTYYADSVKGRFTISRDNSKNTLYLQMNSLRAEDTAVYYCAREQDLWSGTFDYWGQGTLVTVSS
VL: B5 VL with Q24R, T25A, S26R, V29I, G50D, R53S, E55R
B18: CD117-1 (antibody, human IgG1, kappa, V domains shown)
VH: B15 VH
VL: DIQMTQSPSSLSASVGDRVTITCRASQSVRTYLNWYQQKPGKAPKLLIYDASTLQSGVPSRFSGSGSGTDFTLTISSLQPEDFATYYCQQSYSSSITFGGGTKVEIKR

Positions count from the first letter of the chain named. These are yes or no findings as the source states them, for the method shown. Some binding calls cover weakened binding; strength is not graded here.

For the first assay, the target named is SIGLEC-8 transiently expressed on cells (UniProt Q9NYZ4). The assay is described as follows: flow cytometry titration on cells transiently expressing SIGLEC-8 and on parental Expi293.
In the case of B1, the binding entry was “binds”.

A further assay deals with Sialic acid-binding immunoglobulin-like lectin 8 (SIGLEC-8), antigen of the Carterra SPR studies (UniProt Q9NYZ4). The assay is described as follows: comparison with immobilized lirentelimab / immobilized SIGLEC-8-40 (FIGS. 15A-15B).
As for B2, the binding result was “binds”.

For a further assay, the target named is Cluster of differentiation 117 (CD117), antigen of epitope binning and ELISA (UniProt P10721). The assay is described as follows: clonal ELISA screening, ranked by EC50. A general note: An ELISA detects its analyte on a solid surface through an enzyme-linked reagent.
Regarding B3, the binding result was “binds”.

As to B4, the binding entry was “binds”.

Regarding B5, the binding result is given as “binds”.

On to B6, for which the binding entry is recorded as “binds”.

The target of a further assay is SIGLEC-8 transiently expressed on cells (UniProt Q9NYZ4). Put plainly: flow cytometry titration, Expressing vs Parental cells.
For the molecule B7, the binding result is recorded as “binds”.

The target of a further assay is CD117 transiently expressed on Expi293 cells (UniProt P10721). Put plainly: FACS, Expi293 transiently expressing CD117.
Turning to B8, the binding entry is on record as “binds”.

With B9, the binding result was “binds”.

For B10, the binding result is given as “binds”.

For B11, the binding result is listed as “binds”.

In the case of B5, the binding result is reported as “binds”.

Take B12: the binding entry is given as “binds”.

For the molecule B6, the binding entry is listed as “binds”.

For the next assay the target is unchanged. The assay is described as follows: FACS titration, CD117-expressing vs parental cells, MFI RH-1 against nM.
Take B8: the binding result was “binds”.

With B13, the binding entry was “binds”.

Take B14: the binding result is “binds”.

For B15, the binding entry is given as “binds”.

Take B16: the binding entry is “binds”.

Take B5: the binding result is on record as “binds”.

As to B17, the binding result is “binds”.

In the case of B6, the binding entry is “binds”.

Another assay has as its target SIGLEC-8 transiently expressed on cells (UniProt Q9NYZ4). Put plainly: flow cytometry histograms of the titration. In general terms: Flow cytometry measures light scatter and fluorescence of single cells or particles in a stream.
Take B1: the binding entry is “binds”.

For the next assay, the target named is CD117 transiently expressed on Expi293 cells (UniProt P10721). The assay is described as follows: FACS histogram, RL1-H :: APC-H, single cells.
In the case of B3, the binding entry was “binds”.

For B4, the binding result is “binds”.

As for B5, the binding result was “binds”.

Regarding B6, the binding entry is “binds”.

The target is the same in another assay. The assay is described as follows: flow cytometry titration on CD117 transient cells and on parental Expi293.
For the molecule B18, the binding result is reported as “binds”.

As to B4, the binding result is listed as “binds”.

Turning to B17, the binding result is listed as “binds”.
